Measured values from patent publication US20190218553.
Negatives hold for the conditions tested.

Molecular target: von Willebrand factor (VWF) (Homo sapiens) (UniProt P04275)
Assay: filter binding
Conditions: NB, 2 mM CaCl2, 37 C, purified native protein, label: 5'-32P
[1] = 2'-F U7,G8,C9,C10,C11,U12,A19,C20,G21,C22,A23,U30, rest 2'-OMe, 3' idT

ACGAACUGCCCUCAGCUACUUUCAUGUUGCUGACGCACAGACGU [T25 vrt7]
binding result (2'-OMe G8,A33,G35,A37, other purines ribo, pyrimidines 2'-F, 3' idT): no binding

ACGAACUGCCCUCAGCUACUUUCAUGUUGCUGACGCACAGACGU [T25 vrt2]
binding result (all 2'-OMe, 3' idT): no binding

ACGAACUGCCCUCGAUCGACGCACAGACGUACCCG [T82 vrt8]
binding result [1]: no binding

ACGAACUGCCCUCAGCUACUUUCAUGUUGCUGACGCACAGACGU [T25 vrt22]
binding result (2'-OMe C10, purines ribo, other pyrimidines 2'-F, 3' idT): no binding

ACGAACUGCCCUCGAUCGACGCACAGACGU [T59 vrt20]
binding result (2'-F C9,C10,C11,C20,C22,U30, ribo G8, rest 2'-OMe, 3' idT): no binding

ACGAACUGCCCUCGAUCGACGCACAGACGUACACG [T84 vrt8]
binding result [1]: no binding

ACGAACUGCCCUCAGCUACUUUCAUGUUGCUGACGCACAGACGU [T25 vrt18]
binding result (2'-OMe G8,C36, other purines ribo, other pyrimidines 2'-F, 3' idT): no binding

ACGAACUGCCCUCAGCUACUUUCAUGUUGCUGACGCACAGACGU [T25 vrt20]
binding result (2'-OMe C10,C11,C34, purines ribo, other pyrimidines 2'-F, 3' idT): no binding

GGGAGGUGGACGAACUGCCCUCUACUUUCAUGUUGCUGACGCACAGACGACUCGCUG [T18]
binding result (2'-F C and U, 2'-OH A and G, protein details: factor VIII free, Haematologic Technologies Inc., variant of VWF9.14 full length): no binding

ACGAACUGCCCUCGAUCGACGCACAGACGUAAAAA [T83 vrt8]
binding result [1]: no binding

ACGAACUGCCCUCAGCUACUUUCAUGUUGCUGACGCACAGACGU [T25 vrt19]
binding result (2'-OMe C9,G35, other purines ribo, other pyrimidines 2'-F, 3' idT): no binding

ACGAACUGCCCUCGAUCGACGCACAGACGU [T59 vrt28]
binding result (2'-F C9,C10,C11,C20,C22,U30, rest 2'-OMe, 3' idT): no binding

ACGAACUGCCCUCGAUCGACGCACAGACGU [T59 vrt27]
binding result (2'-F C9,C10,C11,C20,U30, ribo G21, rest 2'-OMe, 3' idT): no binding

ACGAACUGCCCUCAGCUACUUUCAUGUUGCUGACGCACAGACGU [T25 vrt1]
binding result (all purines 2'-OMe, all pyrimidines 2'-F, 3' idT): no binding

ACGAACUGCCCUCAGCUACUUUCAUGUUGCUGACGCACAGACGU [T25 vrt8]
binding result (2'-OMe U7-U12 and A33-A37, other purines ribo, other pyrimidines 2'-F, 3' idT): no binding

ACGAACUGCCCUCGUAUUAUUUCGACGCACAGACGU [T89 vrt8]
binding result (2'-F U7,G8,C9,C10,C11,U12,A25,C26,G27,C28,A29,U36, rest 2'-OMe, 3' idT): no binding

ACGAACUGCCCUCAGCUACUUUCAUGUUGCUGACGCACAGACGU [T25 vrt23]
binding result (2'-OMe C11, purines ribo, other pyrimidines 2'-F, 3' idT): no binding

ACGAACUGCCCUCGAUCGACGCACAGACGUUUUUU [T79 vrt8]
binding result [1]: no binding

ACGAACUGCCCUCGAUCGACGCACAGACGU [T59 vrt22]
binding result (2'-F U7,C9,C10,C11,U12,C20,C22,U30, ribo G8, rest 2'-OMe, 3' idT): no binding

ACGAACUGCCCUCGACGCACAGACGU [T57]
binding result (2'-F C and U, 2'-OH A and G, 3' idT, protein details: factor VIII free, Haematologic Technologies Inc., variant of T25): no binding

ACGAACUGCCCUCGUUUCAUCGACGCACAGACGU [T86 vrt8]
binding result (2'-F U7,G8,C9,C10,C11,U12,A23,C24,G25,C26,A27,U34, rest 2'-OMe, 3' idT): no binding
